Reference: publication PMC5131319, “Occurrence, temporal trends, and half-lives of perfluoroalkyl acids (PFAAs) in occupational workers in China” (Scientific Reports, 2016)
“And” between values parts separate entries of the source, which are not always exact repeats. Equal values may be shown once. The source gives many values for each of these; only a part stands here.

Assays:
[1] = Daily renal clearance rate (Clrenal) and serum-to-urine ratio from paired serum and urine; format: in vivo, human; details: individual workers
From the text: The positive correlations between the PFAAs in the serum and the paired urine samples were highly statistically significant, with correlation coefficients of 0.87, 0.64, and 0.72 for PFHxS, PFOA, and PFOS, respectively, (p < 0.01). […] Additionally, the relative abundances of PFOS, PFHxS, and PFOA between the serum and paired urine samples were quite different. The relative abundances in the serum are 64%, 24%, and 12%, respectively, while those in the urine were 19%, 31%, and 40%, respectively. […] Moreover, the ratio of serum-to-urine concentrations (S/U) might be an indicator for PFAA excretion in humans because PFAAs could concentrate in serum while urine excretion is considered an important PFAA elimination pathway. The GM values of S/U for PFHxS, PFOA, and PFOS in all samples were 697, 288, and 1782, respectively, indicating the difficulty in PFAA renal elimination from the workers. To exclude the potential effect of individual differences related to demographic information such as body weight and gender, the daily renal clearance rate (Clrenal) was introduced in the study. Clrenal is a parameter defined in Eq (3) that adjusts the S/U through body weight and the gender-specific daily urine excretion volume.
Paired samples with either concentration under the LOD were set as LOD/2 in the Clrenal study. The urine excretion volumes of males and females were set at 1.4 and 1.2 L/day in the study, respectively, and the body weight values of individual workers were obtained from our questionnaires. The calculated Clrenal values for PFHxS, PFOA, PFOS ranged from 2.0 × 10^−4 to 2.3, 9.0 × 10^−5 to 2.4, and 5.0 × 10^−5 to 0.54 mL day^−1 kg^−1 with GM values of 0.023, 0.067 and 0.010 mL day^−1 kg^−1, respectively (Fig. 3). The minimum values of the PFAAs Clrenal were calculated on the basis of LOD/2 instead of ND (not detected) in the present study. […] However, Zhang et al. observed that the Clrenal of PFHxS was the lowest among these 3 type of PFAAs[28]. The median Clrenal of PFAAs in the present study was similar to that of Zhou et al.’s study (0.012 mL day^−1 kg^−1 for PFHxS, 0.061 mL day^−1 kg^−1 for PFOA, and 0.010 mL day^−1 kg^−1 for PFOS)[39]. In contrast, as noted elsewhere, the Clrenal values of PFOA were the highest among those of the three PFAAs[28][38]. The most recent study on the elevated serum concentrations of PFAAs in fishery employees from Tangxun Lake also stated that the median Clrenal of PFOA (0.061 mL day^−1 kg^−1) was higher than those of the PFHxS and PFOS (0.012 and 0.010 mL day^−1 kg^−1)[39]. […] Moreover, the renal clearance rates of PFAAs in humans were not obviously influenced by the PFAAs level in the serum. […] In addition, gender could not be discounted. […]

[2] = cited from earlier work
[3] = PFAA concentration in serum of occupational workers (HPLC-ESI/MS/MS); format: in vivo, human; design: unit: ng/mL
Protocol: (§1) The selected fluorochemical plant (Henxin Chemical Plant) in this study is one of the largest producers of PFOS-related chemicals in China and is located in Yingcheng, Hubei province. Perfluoroalkyl sulfonic acids (PFSAs) and perfluorotertiary amines are synthesized through an electro-chemical fluorination (ECF) process. We collected paired serum and urine samples from the occupational workers in the plant for five consecutive years, and the sampling activities were carried out in Nov. 2008, Nov. 2009, Nov. 2010, Dec. 2011, and Dec 2012, respectively. The Medical Research Ethics Committee, School of Medicine, Jianghan University, approved the ethics of this study, and all methods were performed in accordance with the relevant guidelines and regulations, moreover, all volunteers gave written informed consent. Demographic information of the donors, including gender, age, length of service, and work assignment, was collected with a questionnaire (Table S1). The sampled population included a total of 302 occupational workers, of which there were 89 female and 213 male participants. In total, 302 serum and 274 urine samples were collected.
(§2) The participants were told not to eat breakfast before the sampling, and morning urine samples and blood samples were collected. Serum was separated from the blood by centrifugation at 1100 × g at 4 °C for 10 min and then placed on ice. Serum samples were then transferred to our laboratory on the same day and stored in polypropylene containers at −20 °C until analysis.
All pre-treatment methods and instrument analysis of PFAAs in serum and urine samples are based on previous studies with minor modifications (see Supplementary Information)[3][31]. Based on the PFAA profiles in environmental matrices around the same plant in our previous study, only 3 main PFAAs, PFHxS, PFOA, and PFOS, were analyzed in the obtained serum and urine samples. Instrumental analysis of the PFAAs was performed by a HPLC-ESI/MS/MS system (HPLC: Waters 2695, MS: Waters Quattro Premier XE). […]

[4] = PFAA concentration in morning urine of occupational workers (HPLC-ESI/MS/MS); format: in vivo, human
Protocol: as §1, §2
All pre-treatment methods and instrument analysis of PFAAs in serum and urine samples are based on previous studies with minor modifications (see Supplementary Information)[3][31]. Based on the PFAA profiles in environmental matrices around the same plant in our previous study, only 3 main PFAAs, PFHxS, PFOA, and PFOS, were analyzed in the obtained serum and urine samples. Instrumental analysis of the PFAAs was performed by a HPLC-ESI/MS/MS system (HPLC: Waters 2695, MS: Waters Quattro Premier XE). The limits of detection (LODs) of PFHxS, PFOA, and PFOS were 0.020, 0.063, and 0.018 ng mL^−1 for serum samples and 0.008, 0.025, and 0.007 ng mL^−1 for urine samples, respectively. A procedural blank was performed for every batch of seven samples, and all of the blank levels were below the LODs. […] Details of quality assurance and quality control of the chemical analysis can be found in the Supplementary Information.
Urine samples were pretreated by solid phase extraction. Briefly, 1 mL of urine spiked with 5 ng of internal standard was added to a 15 - mL PP tube and diluted with 13 mL water. The solid phase extraction procedure was then performed following the previously described serum extraction procedure.

O=C(O)C(F)(F)C(F)(F)C(F)(F)C(F)(F)C(F)(F)C(F)(F)C(F)(F)F [PFOA, perfluorooctanoic acid]
Renal clearance rate (PFOA) ([1]; sampling year 2008): 0.091 mL/day/kg and 0.123 mL/day/kg and 0.108 mL/day/kg
Renal clearance rate (PFOA) ([1]; sampling year 2009): 0.587 mL/day/kg and 0.257 mL/day/kg and 0.139 mL/day/kg
Renal clearance rate (PFOA) ([1]; sampling year 2011): 0.183 mL/day/kg and 0.392 mL/day/kg and 0.196 mL/day/kg and 0.086 mL/day/kg
Renal clearance rate (PFOA) ([1]; sampling year 2012): 0.079 mL/day/kg and 0.063 mL/day/kg and 0.109 mL/day/kg and 0.097 mL/day/kg
Clrenal values obtained from different sources, range [2]: 0.01 to 0.1 mL/day/kg
Clrenal, median ([2]; fishery employees from Tangxun Lake): 0.061 mL/day/kg
Serum PFAA level ([3]; Electrolytic Department, length of service 1-3 years): 918
Serum PFAA level ([3]; Electrolytic Department, length of service >3 years): 1160
Serum PFAA level ([3]; Research Building, length of service < 1 year): 22

O=S(=O)(O)C(F)(F)C(F)(F)C(F)(F)C(F)(F)C(F)(F)C(F)(F)C(F)(F)C(F)(F)F [PFOS, perfluorooctanesulfonate]
Urine PFOS concentration ([4]; sampling year 2008, individual workers): 1.42 ng/mL and 2.15 ng/mL and 26.9 ng/mL and 0.877 ng/mL and 4.86 ng/mL
Urine PFOS concentration ([4]; sampling year 2009, individual workers): 0.683 ng/mL and 0.951 ng/mL and 0.498 ng/mL and 1.27 ng/mL and 2.77 ng/mL and 0.57 ng/mL and 0.314 ng/mL and 0.504 ng/mL
Urine PFOS concentration ([4]; sampling year 2010, individual workers): 6 ng/mL and 0.418 ng/mL and 6.9 ng/mL and 1.17 ng/mL and 6.54 ng/mL and 0.416 ng/mL and 0.864 ng/mL and 0.395 ng/mL and 0.971 ng/mL
Urine PFOS concentration ([4]; sampling year 2011, individual workers): 2.80 ng/mL and 0.80 ng/mL and 0.48 ng/mL and 0.64 ng/mL and 5.37 ng/mL and 3.45 ng/mL and 0.25 ng/mL and 0.21 ng/mL
Urine PFOS concentration ([4]; sampling year 2012, individual workers): 1.1 ng/mL and 0.98 ng/mL and 0.38 ng/mL and 4.54 ng/mL and 0.28 ng/mL and 0.86 ng/mL and 0.4 ng/mL
